Results reported in paper PMC5043270.
These are yes or no findings as the source states them, for the method shown. In cells and extracts the contact can be indirect. Some results given as binding are weak or reduced against the parent protein; the word gives no strength.

The chains behind the UniProt entries cited, without tags or fusion partners.
UniProt Q9NTJ3: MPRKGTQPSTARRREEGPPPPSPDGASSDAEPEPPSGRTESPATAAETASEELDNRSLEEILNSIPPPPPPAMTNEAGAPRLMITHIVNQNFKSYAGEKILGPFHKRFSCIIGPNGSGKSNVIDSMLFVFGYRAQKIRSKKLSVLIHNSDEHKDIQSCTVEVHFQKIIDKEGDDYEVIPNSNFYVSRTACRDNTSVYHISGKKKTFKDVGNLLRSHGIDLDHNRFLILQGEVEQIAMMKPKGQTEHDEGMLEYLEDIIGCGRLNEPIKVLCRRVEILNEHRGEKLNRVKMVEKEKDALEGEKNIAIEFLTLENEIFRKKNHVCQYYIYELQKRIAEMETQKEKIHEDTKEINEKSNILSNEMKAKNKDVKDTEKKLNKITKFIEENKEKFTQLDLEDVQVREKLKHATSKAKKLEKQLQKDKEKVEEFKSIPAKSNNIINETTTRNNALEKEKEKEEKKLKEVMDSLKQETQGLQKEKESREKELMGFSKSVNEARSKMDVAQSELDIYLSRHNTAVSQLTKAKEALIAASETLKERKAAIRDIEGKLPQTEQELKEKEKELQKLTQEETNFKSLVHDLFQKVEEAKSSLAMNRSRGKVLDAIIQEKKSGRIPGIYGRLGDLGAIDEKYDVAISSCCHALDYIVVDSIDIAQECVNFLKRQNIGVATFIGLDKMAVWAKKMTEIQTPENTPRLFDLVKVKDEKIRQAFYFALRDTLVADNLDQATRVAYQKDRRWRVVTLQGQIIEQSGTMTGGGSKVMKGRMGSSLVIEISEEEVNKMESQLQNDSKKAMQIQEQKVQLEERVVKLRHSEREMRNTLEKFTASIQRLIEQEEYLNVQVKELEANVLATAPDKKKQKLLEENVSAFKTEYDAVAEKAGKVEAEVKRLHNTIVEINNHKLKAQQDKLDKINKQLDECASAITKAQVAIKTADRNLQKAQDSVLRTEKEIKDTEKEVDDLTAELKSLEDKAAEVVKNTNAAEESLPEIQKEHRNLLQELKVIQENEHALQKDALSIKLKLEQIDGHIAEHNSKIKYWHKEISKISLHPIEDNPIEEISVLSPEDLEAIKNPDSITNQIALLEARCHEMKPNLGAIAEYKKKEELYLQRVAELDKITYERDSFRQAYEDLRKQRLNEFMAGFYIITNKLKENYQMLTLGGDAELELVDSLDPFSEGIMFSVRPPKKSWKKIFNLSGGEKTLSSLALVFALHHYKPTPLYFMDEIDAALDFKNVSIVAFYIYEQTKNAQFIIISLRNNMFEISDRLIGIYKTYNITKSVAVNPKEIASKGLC

Target: Structural maintenance of chromosome 4 (human (endogenous in A549)) (UniProt Q9NTJ3)
Experiment: co-IP; nuclear extracts of A549 cells (NE-PER), pre-cleared; immunoprecipitated with anti-SMC4 or (reciprocal) anti-DDX46 antibody and Protein A/G PLUS Agarose overnight at 4 °C; washed with 1xTBS; Western blot; normal rabbit IgG as negative control

binding: binds
B1: DEAD-box helicase 46 (protein, UniProt Q7L014 1-1031)
chain: MGRESRHYRKRSASRGRSGSRSRSRSPSDKRSKRGDDRRSRSRDRDRRRERSRSRDKRRSRSRDRKRLRRSRSRERDRSRERRRSRSRDRRRSRSRSRGRRSRSSSPGNKSKKTENRSRSKEKTDGGESSKEKKKDKDDKEDEKEKDAGNFDQNKLEEEMRKRKERVEKWREEQRKKAMENIGELKKEIEEMKQGKKWSLEDDDDDEDDPAEAEKEGNEMEGEELDPLDAYMEEVKEEVKKFNMRSVKGGGGNEKKSGPTVTKVVTVVTTKKAVVDSDKKKGELMENDQDAMEYSSEEEEVDLQTALTGYQTKQRKLLEPVDHGKIEYEPFRKNFYVEVPELAKMSQEEVNVFRLEMEGITVKGKGCPKPIKSWVQCGISMKILNSLKKHGYEKPTPIQTQAIPAIMSGRDLIGIAKTGSGKTIAFLLPMFRHIMDQRSLEEGEGPIAVIMTPTRELALQITKECKKFSKTLGLRVVCVYGGTGISEQIAELKRGAEIIVCTPGRMIDMLAANSGRVTNLRRVTYVVLDEADRMFDMGFEPQVMRIVDNVRPDRQTVMFSATFPRAMEALARRILSKPIEVQVGGRSVVCSDVEQQVIVIEEEKKFLKLLELLGHYQESGSVIIFVDKQEHADGLLKDLMRASYPCMSLHGGIDQYDRDSIINDFKNGTCKLLVATSVAARGLDVKHLILVVNYSCPNHYEDYVHRAGRTGRAGNKGYAYTFITEDQARYAGDIIKALELSGTAVPPDLEKLWSDFKDQQKAEGKIIKKSSGFSGKGFKFDETEQALANERKKLQKAALGLQDSDDEDAAVDIDEQIESMFNSKKRVKDMAAPGTSSVPAPTAGNAEKLEIAKRLALRINAQKNLGIESQDVMQQATNAILRGGTILAPTVSAKTIAEQLAEKINAKLNYVPLEKQEEERQDGGQNESFKRYEEELEINDFPQTARWKVTSKEALQRISEYSEAAITIRGTYFPPGKEPKEGERKIYLAIESANELAVQKAKAEITRLIKEELIRLQNSYQPTNKGRYKVL
